From patent US20040067903A1
These are yes or no findings as the source states them, for the method shown. In cells and extracts the contact can be indirect. Some binding calls cover weakened binding; strength is not graded here. Where a sequence is shown, tags or fusion partners need not be part of it.

By UniProt entry, the sequences of proteins in these tests, tags left out. Residues count along the entry.
UniProt P04899, residues 2-355: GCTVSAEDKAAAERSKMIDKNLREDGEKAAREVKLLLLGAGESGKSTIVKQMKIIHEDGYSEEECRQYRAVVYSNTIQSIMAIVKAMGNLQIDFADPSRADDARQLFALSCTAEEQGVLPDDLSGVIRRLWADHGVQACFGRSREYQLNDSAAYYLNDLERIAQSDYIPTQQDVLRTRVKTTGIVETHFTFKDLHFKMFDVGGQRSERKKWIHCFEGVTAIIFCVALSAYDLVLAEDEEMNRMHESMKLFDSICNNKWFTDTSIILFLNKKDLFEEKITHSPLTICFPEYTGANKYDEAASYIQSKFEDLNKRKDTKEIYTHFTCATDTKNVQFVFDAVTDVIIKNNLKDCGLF

Biological target: Gαi2 (endogenous, human platelet lysate) (human) (UniProt P04899)
Assay: GST pull-down from GDP+AlF4- treated human platelet lysate, western blot

- binding: binds
B1: GST-RGS18 fusion protein coupled to glutathione-Sepharose 4B (protein, not shown: a dimerising Fc or GST)
chain: METTLLFFSQINMCESKEKTFFKLIHGSGKEETSKEAKIRAKEKRNRLSLLVQKPEFHEDTRSSRSGHLAKETRVSPEEAVKWGESFDKLLSHRDGLEAFTRFLKTEFSEENIEFWIACEDFKKSKGPQQIHLKAKAIYEKFIQTDAPKEVNLDFHTKEVITNSITQPTLHSFDAAQSRVYQLMEQDSYTRFLKSDIYLDLMEGRPQRPTNLRRRSRSFTCNEFQDVQSDVAIWL
